Laboratory results from paper PMC10796087.
No constants are given. Whether binding was seen depends on the method and setting. Binding seen in cells or lysates may run through a third protein. Some entries that bind do so weakly or less than the wild type.

Protein sequences, listed by entry. Tags and fused reporters are not part of them.
UniProt Q96KQ7: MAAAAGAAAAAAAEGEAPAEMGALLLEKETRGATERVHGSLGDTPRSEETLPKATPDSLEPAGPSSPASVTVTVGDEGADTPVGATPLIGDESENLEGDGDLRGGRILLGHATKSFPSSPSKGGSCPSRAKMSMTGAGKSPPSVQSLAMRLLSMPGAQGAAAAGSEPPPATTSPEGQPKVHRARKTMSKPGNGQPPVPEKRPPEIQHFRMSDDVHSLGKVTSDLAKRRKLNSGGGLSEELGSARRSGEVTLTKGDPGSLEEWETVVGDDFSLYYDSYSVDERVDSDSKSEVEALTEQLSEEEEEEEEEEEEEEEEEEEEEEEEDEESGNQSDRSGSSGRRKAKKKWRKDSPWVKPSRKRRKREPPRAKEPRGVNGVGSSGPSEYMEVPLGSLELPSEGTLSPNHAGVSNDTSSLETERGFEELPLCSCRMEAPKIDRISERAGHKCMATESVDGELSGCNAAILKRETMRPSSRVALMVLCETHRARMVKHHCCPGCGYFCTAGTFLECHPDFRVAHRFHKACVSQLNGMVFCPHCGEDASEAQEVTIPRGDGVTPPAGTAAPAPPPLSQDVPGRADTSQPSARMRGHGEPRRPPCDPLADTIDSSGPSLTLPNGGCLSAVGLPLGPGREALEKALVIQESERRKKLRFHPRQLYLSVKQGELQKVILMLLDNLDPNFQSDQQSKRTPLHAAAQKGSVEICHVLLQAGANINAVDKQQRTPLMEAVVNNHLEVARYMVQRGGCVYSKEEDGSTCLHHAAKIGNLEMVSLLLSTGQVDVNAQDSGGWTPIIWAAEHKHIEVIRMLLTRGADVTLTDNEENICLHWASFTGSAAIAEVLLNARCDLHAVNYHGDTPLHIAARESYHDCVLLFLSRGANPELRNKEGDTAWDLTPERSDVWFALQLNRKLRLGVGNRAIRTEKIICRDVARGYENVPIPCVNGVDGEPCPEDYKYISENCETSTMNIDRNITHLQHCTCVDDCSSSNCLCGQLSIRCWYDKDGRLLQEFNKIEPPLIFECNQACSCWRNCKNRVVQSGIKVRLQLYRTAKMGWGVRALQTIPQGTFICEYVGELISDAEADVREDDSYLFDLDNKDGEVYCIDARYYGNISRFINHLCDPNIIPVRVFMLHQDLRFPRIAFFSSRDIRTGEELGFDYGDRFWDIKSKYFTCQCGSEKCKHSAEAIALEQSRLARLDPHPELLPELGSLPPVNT
UniProt P60983: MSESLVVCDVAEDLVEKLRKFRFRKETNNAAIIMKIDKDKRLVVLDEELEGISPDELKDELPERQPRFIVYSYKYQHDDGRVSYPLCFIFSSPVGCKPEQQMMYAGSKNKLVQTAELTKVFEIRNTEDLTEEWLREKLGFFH

Target: Flag-tagged human G9a (human) (UniProt Q96KQ7)
Test: co-IP; HEK 293T cells transfected with Flag-G9a or empty vector; lysed in IP buffer (25 mM tris-HCl pH 7.4, 150 mM NaCl, 5% glycerol, 1 mM EDTA, 1% NP-40); Flag resin, 4°C, 4 hours or overnight; western blot

Substance: glia maturation factor β (GMFB) (from UniProt P60983 1-142)
- binding: binds
